Results are given in words; binding and its absence hold for the method and conditions named. In cells and extracts the contact can be indirect. Some results given as binding are weak or reduced against the parent protein; the word gives no strength.
Biological target: NEK6 in HEC-1A cells (UniProt Q9HC98)
Assay: co-IP; IP-western blot in HEC-1A cells; NEK6 precipitated, YBX1 detected by blot

Amino acid sequences for entries named in this document (tags omitted).
UniProt Q9HC98: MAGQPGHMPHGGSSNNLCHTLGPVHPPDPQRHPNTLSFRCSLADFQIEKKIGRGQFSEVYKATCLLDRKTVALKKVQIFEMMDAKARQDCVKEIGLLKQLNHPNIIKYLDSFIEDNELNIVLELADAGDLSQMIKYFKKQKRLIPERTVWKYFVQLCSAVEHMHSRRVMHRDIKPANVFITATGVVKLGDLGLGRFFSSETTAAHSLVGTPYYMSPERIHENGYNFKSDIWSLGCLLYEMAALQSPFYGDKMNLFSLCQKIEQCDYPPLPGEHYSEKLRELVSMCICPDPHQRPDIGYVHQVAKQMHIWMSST
UniProt P67809: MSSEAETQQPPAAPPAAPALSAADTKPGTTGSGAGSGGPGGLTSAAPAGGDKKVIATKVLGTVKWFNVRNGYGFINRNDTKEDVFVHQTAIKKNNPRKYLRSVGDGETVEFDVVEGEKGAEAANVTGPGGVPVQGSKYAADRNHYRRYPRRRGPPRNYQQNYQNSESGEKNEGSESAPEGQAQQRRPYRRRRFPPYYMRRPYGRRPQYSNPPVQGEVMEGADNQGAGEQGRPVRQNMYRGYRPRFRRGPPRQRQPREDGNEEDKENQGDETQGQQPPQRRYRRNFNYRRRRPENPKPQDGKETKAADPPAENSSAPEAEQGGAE

- binding: binds
Substance: Y-box-binding protein 1 (YBX1), endogenous in HEC-1A cells (from UniProt P67809 1-324)
